Assay results published in paper doi:10.1101/2025.06.30.662258.
Where two headings read alike, the source gives them in different places. Results are given in words; binding and its absence hold for the method and conditions named. Binding seen in cells or lysates may run through a third protein. Some results given as binding are weak or reduced against the parent protein; the word gives no strength. One block for each molecule: values may come before it.

Chains of the proteins cited; added tags and fusions are not shown.
UniProt Q99496: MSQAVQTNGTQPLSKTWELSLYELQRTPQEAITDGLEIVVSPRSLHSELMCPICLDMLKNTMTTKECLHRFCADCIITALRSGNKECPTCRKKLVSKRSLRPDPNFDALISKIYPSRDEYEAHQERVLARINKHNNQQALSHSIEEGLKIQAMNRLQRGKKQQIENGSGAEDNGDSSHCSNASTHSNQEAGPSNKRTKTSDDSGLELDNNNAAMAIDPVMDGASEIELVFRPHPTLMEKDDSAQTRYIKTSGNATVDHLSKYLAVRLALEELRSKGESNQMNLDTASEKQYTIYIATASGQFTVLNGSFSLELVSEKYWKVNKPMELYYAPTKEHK

Key:
Assay in all cases: co-IP
Fibrillarin (FBL) [1] = target: T1, Fibrillarin (FBL) (UniProt P22087)
T1 sequence: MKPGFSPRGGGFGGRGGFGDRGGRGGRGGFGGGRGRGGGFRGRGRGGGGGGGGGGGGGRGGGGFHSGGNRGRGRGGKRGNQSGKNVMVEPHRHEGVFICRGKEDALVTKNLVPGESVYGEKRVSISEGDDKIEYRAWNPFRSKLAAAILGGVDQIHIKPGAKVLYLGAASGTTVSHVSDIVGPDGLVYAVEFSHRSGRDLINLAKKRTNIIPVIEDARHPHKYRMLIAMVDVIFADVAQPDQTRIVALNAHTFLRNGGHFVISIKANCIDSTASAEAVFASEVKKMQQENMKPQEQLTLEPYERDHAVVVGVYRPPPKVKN

Midnolin = target: T2, Midnolin (UniProt Q504T8)
T2 sequence: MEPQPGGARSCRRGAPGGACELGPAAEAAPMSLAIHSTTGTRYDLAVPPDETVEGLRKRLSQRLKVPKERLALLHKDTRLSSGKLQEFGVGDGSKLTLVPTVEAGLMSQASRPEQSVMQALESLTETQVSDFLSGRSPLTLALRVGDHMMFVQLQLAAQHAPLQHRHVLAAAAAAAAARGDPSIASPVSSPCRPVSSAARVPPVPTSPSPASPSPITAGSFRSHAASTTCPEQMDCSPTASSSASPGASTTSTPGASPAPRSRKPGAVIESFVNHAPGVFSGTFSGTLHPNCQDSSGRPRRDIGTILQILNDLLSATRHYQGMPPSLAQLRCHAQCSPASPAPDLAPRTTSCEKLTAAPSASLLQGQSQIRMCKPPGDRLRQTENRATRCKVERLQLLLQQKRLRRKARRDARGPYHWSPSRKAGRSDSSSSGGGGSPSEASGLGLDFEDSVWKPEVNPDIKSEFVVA

Fibrillarin (FBL) [2] = target: T1, Fibrillarin (FBL); remark: listed apart in the source

- binding (Fibrillarin (FBL) [1]): binds
Molecule: RING1B (from UniProt Q99496 1-336)

- binding (Midnolin): binds
- binding (Fibrillarin (FBL) [2]): binds
B1: USP36 (Ubiquitin-Specific Protease 36) (enzyme, UniProt Q9P275 1-1123)
chain: MPIVDKLKEALKPGRKDSADDGELGKLLASSAKKVLLQKIEFEPASKSFSYQLEALKSKYVLLNPKTEGASRHKSGDDPPARRQGSEHTYESCGDGVPAPQKVLFPTERLSLRWERVFRVGAGLHNLGNTCFLNATIQCLTYTPPLANYLLSKEHARSCHQGSFCMLCVMQNHIVQAFANSGNAIKPVSFIRDLKKIARHFRFGNQEDAHEFLRYTIDAMQKACLNGCAKLDRQTQATTLVHQIFGGYLRSRVKCSVCKSVSDTYDPYLDVALEIRQAANIVRALELFVKADVLSGENAYMCAKCKKKVPASKRFTIHRTSNVLTLSLKRFANFSGGKITKDVGYPEFLNIRPYMSQNNGDPVMYGLYAVLVHSGYSCHAGHYYCYVKASNGQWYQMNDSLVHSSNVKVVLNQQAYVLFYLRIPGSKKSPEGLISRTGSSSLPGRPSVIPDHSKKNIGNGIISSPLTGKRQDSGTMKKPHTTEEIGVPISRNGSTLGLKSQNGCIPPKLPSGSPSPKLSQTPTHMPTILDDPGKKVKKPAPPQHFSPRTAQGLPGTSNSNSSRSGSQRQGSWDSRDVVLSTSPKLLATATANGHGLKGNDESAGLDRRGSSSSSPEHSASSDSTKAPQTPRSGAAHLCDSQETNCSTAGHSKTPPSGADSKTVKLKSPVLSNTTTEPASTMSPPPAKKLALSAKKASTLWRATGNDLRPPPPSPSSDLTHPMKTSHPVVASTWPVHRARAVSPAPQSSSRLQPPFSPHPTLLSSTPKPPGTSEPRSCSSISTALPQVNEDLVSLPHQLPEASEPPQSPSEKRKKTFVGEPQRLGSETRLPQHIREATAAPHGKRKRKKKKRPEDTAASALQEGQTQRQPGSPMYRREGQAQLPAVRRQEDGTQPQVNGQQVGCVTDGHHASSRKRRRKGAEGLGEEGGLHQDPLRHSCSPMGDGDPEAMEESPRKKKKKKRKQETQRAVEEDGHLKCPRSAKPQDAVVPESSSCAPSANGWCPGDRMGLSQAPPVSWNGERESDVVQELLKYSSDKAYGRKVLTWDGKMSAVSQDAIEDSRQARTETVVDDWDEEFDRGKEKKIKKFKREKRRNFNAFQKLQTRRNFWSVTHPAKAASLSYRR

- binding (Fibrillarin (FBL) [2]): binds
B2: Midnolin (protein, UniProt Q504T8 1-468)
chain: T2 sequence
